In all, about 580,000 compounds went through this assay and about 6,100 (1.1%) were called active. The shares of active, inactive and inconclusive entries below differ from those in the screen. Calls follow the shape of the dose curve; as a rule, active = well fitted inhibition curve with a large enough effect; inconclusive = small, poorly fitted or top-dose-only effect, or another doubt; inactive = no such curve, though single readings can be large or run the other way. Potencies beside an inconclusive call are fits to weak or partial responses and may not hold up.
molecular target: Polyunsaturated fatty acid lipoxygenase ALOX12 (Homo sapiens) (UniProt P18054); test: Primary qHTS assay for inhibitors of human arachidonate 12S-lipoxygenase (ALOX12): Round 2; conditions: purified 12hLO, xylenol orange hydroperoxide absorbance; activity change, negative = inhibition: at 108 µM (top of the series) unless noted
How it was run: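 Purified human 12hLO (150 nM final) in 25 mM Hepes, 0.01% Triton X-100, pH 7.0 was preincubated 15 min at room temperature with compound. Then 40 uM arachidonic acid was added, 30 min. Hydroperoxide was read by Fe-XO absorbance ratio 573/405 nm.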
% is scaled to controls: 0 for no effect and ±100 for the full control effect; potency is read from the fitted curve at half-maximal effect.

The chains behind the UniProt entries cited, without tags or fusion partners.
UniProt P18054, whole entry, looked up: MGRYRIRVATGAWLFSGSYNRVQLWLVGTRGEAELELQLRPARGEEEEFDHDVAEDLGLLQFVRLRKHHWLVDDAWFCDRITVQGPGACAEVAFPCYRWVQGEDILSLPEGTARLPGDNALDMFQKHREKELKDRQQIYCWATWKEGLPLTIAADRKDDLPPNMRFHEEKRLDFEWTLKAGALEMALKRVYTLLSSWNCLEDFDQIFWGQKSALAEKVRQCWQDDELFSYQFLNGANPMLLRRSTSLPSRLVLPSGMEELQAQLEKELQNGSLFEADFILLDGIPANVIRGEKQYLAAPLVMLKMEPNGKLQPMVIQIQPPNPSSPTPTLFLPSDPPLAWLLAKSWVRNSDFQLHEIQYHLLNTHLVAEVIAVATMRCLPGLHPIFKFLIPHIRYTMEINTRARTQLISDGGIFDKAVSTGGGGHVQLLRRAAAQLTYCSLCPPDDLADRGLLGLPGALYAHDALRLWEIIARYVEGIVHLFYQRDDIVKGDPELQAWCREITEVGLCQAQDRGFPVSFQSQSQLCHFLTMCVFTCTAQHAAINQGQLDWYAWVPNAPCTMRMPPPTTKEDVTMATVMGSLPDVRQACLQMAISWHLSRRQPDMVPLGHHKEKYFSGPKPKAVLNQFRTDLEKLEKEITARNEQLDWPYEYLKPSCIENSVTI

**Q.** COc1ccc(CN2C(=O)c3ccccc3C2c2nnnn2Cc2ccccc2)cc1OC (stereo not given) was tested. Which Potency did it give?
**A.** inconclusive: 28.2 µM [inhibitor, single point]

**Q.** CCONC(=O)CNC(=O)c1ccccc1 was tested. Which Potency did it give?
**A.** inconclusive: 50.1 µM [inhibitor, partial curve, poor fit]

**Q.** For Cc1ccc(Nc2nc(-c3ccc4[nH]c(=O)oc4c3)cs2)cc1F, which Potency is on record?
**A.** inconclusive: 6.31 µM [inhibitor, full curve, poor fit]

**Q.** How did the “activity change, negative = inhibition” value turn out when COCCn1ncc(N2CCCC(CC(=O)NCCc3ccccc3)C2)cc1=O (stereo not given) was run?
**A.** inactive: 28.2%

**Q.** How did the Potency turn out when CCc1cccc2c(C(C)=O)cn(CC(=O)NC3CC3)c12 was run?
**A.** active: 31.6 µM

**Q.** COCCN(C(=O)COC(=O)CCC1CCCC1)c1c(N)n(Cc2ccccc2)c(=O)[nH]c1=O was tested. Which Potency did it give?
**A.** inconclusive: 141 µM [inhibitor, partial curve, poor fit]

**Q.** How did the Potency turn out when CCn1c(SCC(=O)O)nc2c1c(=O)[nH]c(=O)n2C was run?
**A.** inconclusive: 89.1 µM [inhibitor, partial curve, poor fit]

**Q.** For Cc1ccc(OCCOCCN2CCN(C)CC2)c(C(C)(C)C)c1, which Potency is on record?
**A.** inconclusive: 5.62 µM [inhibitor, full curve, poor fit]

**Q.** With CCCc1c(OCC(O)COc2ccc3c(=O)cc(C(=O)O)oc3c2CCC)ccc(C(C)=O)c1O (stereo not given) as the molecule, how does the Potency read?
**A.** inconclusive: 39.8 µM [inhibitor, partial curve, poor fit]

**Q.** With COc1cccc(CN2CC(C(=O)NCCCc3ccc(C)cc3)CCC2=O)c1 (stereo not given) as the molecule, how does the “activity change, negative = inhibition” value read?
**A.** inactive: 10.3%

**Q.** How did the Potency turn out when COc1cccc(Cn2c(=O)c(-c3cc(F)cc(F)c3)nc3cnc(N(C)C)nc32)c1 was run?
**A.** inconclusive: 89.1 µM [inhibitor, single point]

**Q.** Which Potency does the source give for CC(=O)Nc1cccc(-c2csc(Nc3ccccc3C)n2)c1 here?
**A.** inconclusive: 89.1 µM [inhibitor, single point]

**Q.** CCN(Cc1ccccc1)Cc1c(O)ccc2oc(C)c(C(=O)Nc3ccc(C)cc3C)c12 was tested. Which Potency did it give?
**A.** inconclusive: 158 µM [inhibitor, single point]

**Q.** How did the Potency turn out when CN1C(C(=O)Nc2cccc(O)c2)=CC(c2ccco2)=NS1(=O)=O was run?
**A.** inconclusive: 50.1 µM [inhibitor, partial curve, poor fit]

**Q.** For Cc1ccc(S(=O)(=O)N2CCN(C(=O)Cn3cnc4c3c(=O)n(C)c(=O)n4C)CC2)cc1C, which “activity change, negative = inhibition” value is on record?
**A.** inactive: -6.45%

**Q.** Which “activity change, negative = inhibition” value does the source give for CN1C(=O)C2(C(C#N)=C(N)Oc3n[nH]c(-c4ccc(Cl)cc4)c32)c2ccccc21 (stereo not given) here?
**A.** inactive: -1.39%

**Q.** Cc1cc(=O)oc2cc(OCCSCCN3CCCC3)ccc12 was tested. Which Potency did it give?
**A.** inconclusive: 89.1 µM [inhibitor, single point]

**Q.** For CC(C)NC(=O)N1CCC2(CC1)C(=O)NCN2C(=O)Cc1c[nH]c2ccccc12, which Potency is on record?
**A.** inconclusive: 50.1 µM [inhibitor, partial curve]

**Q.** How did the “activity change, negative = inhibition” value turn out when COc1ccc(-n2cc(CNCC3CCOCC3)c(-c3cccc(F)c3)n2)cc1 was run?
**A.** inactive: -12.4%

**Q.** For CCn1c(SCC(=O)NCc2ccco2)nc2ccccc2c1=O, which “activity change, negative = inhibition” value is on record?
**A.** inactive: -7.97%

**Q.** How did the Potency turn out when CC(C)(C)OC(=O)NC1CCCN(Cc2cccs2)C1 (stereo not given) was run?
**A.** inconclusive: 56.2 µM [inhibitor, partial curve, poor fit]

**Q.** With CC(C(=O)N1CCN(c2ccc(Cl)cc2)CC1)c1ncc(C(F)(F)F)cc1Cl (stereo not given) as the molecule, how does the activity change, negative = inhibition read?
**A.** inconclusive: -43.1% [inhibitor]

**Q.** Nc1ccccc1SCc1ccccc1Cl was tested. Which Potency did it give?
**A.** inconclusive: 44.7 µM [inhibitor, partial curve, poor fit]

**Q.** Which activity change, negative = inhibition does the source give for CC(C)OCCCNc1nc2c([S+](=O)([O-])c3ccncc3)nnn2c2ccccc12 here?
**A.** inactive: 3.57% [at 6.33 µM]

**Q.** How did the Potency turn out when COc1ccc(-c2cc(C(=O)N3CCN(c4ccccc4)CC3)no2)cc1 was run?
**A.** inactive

**Q.** How did the “activity change, negative = inhibition” value turn out when C=CCNC(=S)Nc1ccc(N2CCOCC2)c(S(=O)(=O)Nc2ccccc2Cl)c1 was run?
**A.** inactive: -2.97%

**Q.** Which “activity change, negative = inhibition” value does the source give for CC1(c2ccccn2)Nc2ccccc2-c2nc3ccccc3n21 (stereo not given) here?
**A.** inactive: -15.6%

**Q.** How did the Potency turn out when O=C(C1CC12CCCC2)N1CCc2onc(-c3cccc(F)c3)c2C1 (stereo not given) was run?
**A.** inconclusive: 20 µM [inhibitor, partial curve, poor fit]

**Q.** Which “activity change, negative = inhibition” value does the source give for Cn1c(=O)[nH]c2c(cnn2C)c1=O here?
**A.** inactive: -6.87%

**Q.** How did the “activity change, negative = inhibition” value turn out when COc1cc(C(=O)ON=C2C=C(C)C(=O)C(C)=C2)cc(OC)c1OC was run?
**A.** inactive: 10.9%

**Q.** With O=C(CCc1cccnc1)NC1(c2ccc(Br)cc2)CC1 as the molecule, how does the Potency read?
**A.** inconclusive: 35.5 µM [inhibitor, partial curve, poor fit]

**Q.** Which Potency does the source give for CCOc1ccc2c(=O)c(Oc3cccc(C)c3)coc2c1 here?
**A.** inconclusive: 39.8 µM [inhibitor, single point]

**Q.** For Clc1ccccc1C1(c2ccnc(NC3CCC3)n2)CCNCC1, which Potency is on record?
**A.** inconclusive: 10 µM [inhibitor, full curve]

**Q.** With CCc1nnc(NC(=O)c2nc(SCc3ccccc3F)ncc2Cl)s1 as the molecule, how does the “activity change, negative = inhibition” value read?
**A.** inactive: -15.3%

**Q.** O=S1(=O)c2ccccc2N(Cc2ccc(Cl)cc2)c2ccccc21 was tested. Which “activity change, negative = inhibition” value did it give?
**A.** inactive: -6.81%

**Q.** With COc1ccccc1CNC(=O)COC(=O)c1ccc(C)s1 as the molecule, how does the Potency read?
**A.** inconclusive: 31.6 µM [inhibitor, single point]

**Q.** For CCn1c(SCc2cc(=O)n3[nH]cc(C#N)c3n2)nnc1-c1ccc(Cl)cc1, which Potency is on record?
**A.** inconclusive: 56.2 µM [inhibitor, partial curve, poor fit]

**Q.** With Cc1cccc(C)c1N1CCN(S(=O)(=O)N(C)C)CC1 as the molecule, how does the Potency read?
**A.** inconclusive: 50.1 µM [inhibitor, partial curve, poor fit]

**Q.** Which Potency does the source give for O=S(=O)(Nc1ccc(O)c(NS(=O)(=O)c2ccccc2)c1)c1ccccc1 here?
**A.** inconclusive: 20 µM [inhibitor, partial curve]

**Q.** With CC(C)c1ccccc1NC(=O)CN(c1ccccc1F)S(=O)(=O)c1ccccc1 as the molecule, how does the Potency read?
**A.** inconclusive: 141 µM [inhibitor, partial curve, poor fit]

**Q.** For COc1ccc2c(c1)c(=O)c(C(=O)c1ccc(F)cc1)cn2CC(=O)Nc1ccc2c(c1)OCO2, which “activity change, negative = inhibition” value is on record?
**A.** inactive: -19.3%

**Q.** With CCN1CCN(c2ccc(C(=O)N3CCCC(c4ccccc4)CC3)cn2)CC1 (stereo not given) as the molecule, how does the Potency read?
**A.** inconclusive: 8.91 µM [inhibitor, full curve]

**Q.** For CCOC(=O)CNC(=O)c1sc2nc(C)cc(C)c2c1N, which “activity change, negative = inhibition” value is on record?
**A.** inactive: 1.97%

**Q.** For Cc1ccc(CNCCC2=CCCCC2)s1, which Potency is on record?
**A.** inconclusive: 100 µM [inhibitor, single point]

**Q.** How did the Potency turn out when CCS(=O)(=O)C1=NSC2=NC(=O)/C(=C\c3ccc(OC(=O)c4ccco4)c(OC)c3)C(=N)N21 was run?
**A.** inconclusive: 44.7 µM [inhibitor, partial curve, poor fit]

Source: PubChem BioAssay AID1671190 (National Center for Advancing Translational Sciences (NCATS), 2021)
